Test results taken from publication doi:10.1101/068262 (bioRxiv, 2016).
These are yes or no findings as the source states them, for the method shown. In cells and extracts the contact can be indirect. Some entries that bind do so weakly or less than the wild type. For some of these results: Sequences can lack the tags named with a protein.

The chains behind the UniProt entries cited, without tags or fusion partners.
UniProt O00472: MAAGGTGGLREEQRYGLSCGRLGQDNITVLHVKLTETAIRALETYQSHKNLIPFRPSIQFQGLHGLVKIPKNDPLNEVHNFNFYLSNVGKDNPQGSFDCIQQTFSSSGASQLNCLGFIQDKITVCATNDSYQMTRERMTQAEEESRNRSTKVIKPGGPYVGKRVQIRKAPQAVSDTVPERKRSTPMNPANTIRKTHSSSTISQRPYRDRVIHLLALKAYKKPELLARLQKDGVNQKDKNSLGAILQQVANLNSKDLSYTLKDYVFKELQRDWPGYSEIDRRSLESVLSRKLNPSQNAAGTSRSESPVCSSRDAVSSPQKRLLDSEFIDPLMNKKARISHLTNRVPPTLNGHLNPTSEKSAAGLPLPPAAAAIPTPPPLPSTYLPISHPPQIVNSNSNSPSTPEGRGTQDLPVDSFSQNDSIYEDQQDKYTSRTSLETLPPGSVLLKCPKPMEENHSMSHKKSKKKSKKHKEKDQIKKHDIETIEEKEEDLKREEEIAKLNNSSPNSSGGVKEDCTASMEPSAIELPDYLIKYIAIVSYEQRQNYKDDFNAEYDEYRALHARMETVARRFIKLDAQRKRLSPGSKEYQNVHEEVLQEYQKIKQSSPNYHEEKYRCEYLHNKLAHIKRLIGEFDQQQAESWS

Assays:
Assay in all cases: co-IP
[1] = molecular target: T1, FLAG-AFF4 Δ970-1163 F345D (UniProt Q9UHB7)
T1 sequence: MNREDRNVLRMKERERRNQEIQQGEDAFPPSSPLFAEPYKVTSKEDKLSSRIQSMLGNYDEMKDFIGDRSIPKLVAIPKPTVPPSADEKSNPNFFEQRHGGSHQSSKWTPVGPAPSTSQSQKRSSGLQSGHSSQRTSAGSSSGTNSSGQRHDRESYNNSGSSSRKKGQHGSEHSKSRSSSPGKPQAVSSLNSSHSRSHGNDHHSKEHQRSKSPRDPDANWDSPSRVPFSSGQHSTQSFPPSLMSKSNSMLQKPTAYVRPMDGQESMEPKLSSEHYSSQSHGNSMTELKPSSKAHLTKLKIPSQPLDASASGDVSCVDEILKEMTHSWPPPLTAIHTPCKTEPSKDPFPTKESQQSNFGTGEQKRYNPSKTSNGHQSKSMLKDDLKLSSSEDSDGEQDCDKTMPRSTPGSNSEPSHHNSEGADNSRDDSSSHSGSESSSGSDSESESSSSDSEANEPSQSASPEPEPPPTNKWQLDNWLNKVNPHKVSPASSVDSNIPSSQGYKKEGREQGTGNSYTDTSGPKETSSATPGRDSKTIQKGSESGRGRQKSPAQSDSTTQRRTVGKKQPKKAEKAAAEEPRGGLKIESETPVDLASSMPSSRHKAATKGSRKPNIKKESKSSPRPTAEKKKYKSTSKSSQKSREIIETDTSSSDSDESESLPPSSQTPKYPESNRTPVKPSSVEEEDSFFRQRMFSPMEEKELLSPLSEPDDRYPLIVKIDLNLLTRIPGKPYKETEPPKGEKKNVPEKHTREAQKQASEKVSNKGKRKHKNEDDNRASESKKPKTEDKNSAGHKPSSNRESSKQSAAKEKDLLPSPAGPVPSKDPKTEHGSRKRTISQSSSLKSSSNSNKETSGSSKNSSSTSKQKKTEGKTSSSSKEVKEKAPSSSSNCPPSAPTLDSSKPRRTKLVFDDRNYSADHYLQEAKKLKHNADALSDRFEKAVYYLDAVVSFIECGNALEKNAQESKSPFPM

[2] = molecular target: T2, FLAG-AFF4 Δ970-1163 F347D (UniProt Q9UHB7)
T2 sequence: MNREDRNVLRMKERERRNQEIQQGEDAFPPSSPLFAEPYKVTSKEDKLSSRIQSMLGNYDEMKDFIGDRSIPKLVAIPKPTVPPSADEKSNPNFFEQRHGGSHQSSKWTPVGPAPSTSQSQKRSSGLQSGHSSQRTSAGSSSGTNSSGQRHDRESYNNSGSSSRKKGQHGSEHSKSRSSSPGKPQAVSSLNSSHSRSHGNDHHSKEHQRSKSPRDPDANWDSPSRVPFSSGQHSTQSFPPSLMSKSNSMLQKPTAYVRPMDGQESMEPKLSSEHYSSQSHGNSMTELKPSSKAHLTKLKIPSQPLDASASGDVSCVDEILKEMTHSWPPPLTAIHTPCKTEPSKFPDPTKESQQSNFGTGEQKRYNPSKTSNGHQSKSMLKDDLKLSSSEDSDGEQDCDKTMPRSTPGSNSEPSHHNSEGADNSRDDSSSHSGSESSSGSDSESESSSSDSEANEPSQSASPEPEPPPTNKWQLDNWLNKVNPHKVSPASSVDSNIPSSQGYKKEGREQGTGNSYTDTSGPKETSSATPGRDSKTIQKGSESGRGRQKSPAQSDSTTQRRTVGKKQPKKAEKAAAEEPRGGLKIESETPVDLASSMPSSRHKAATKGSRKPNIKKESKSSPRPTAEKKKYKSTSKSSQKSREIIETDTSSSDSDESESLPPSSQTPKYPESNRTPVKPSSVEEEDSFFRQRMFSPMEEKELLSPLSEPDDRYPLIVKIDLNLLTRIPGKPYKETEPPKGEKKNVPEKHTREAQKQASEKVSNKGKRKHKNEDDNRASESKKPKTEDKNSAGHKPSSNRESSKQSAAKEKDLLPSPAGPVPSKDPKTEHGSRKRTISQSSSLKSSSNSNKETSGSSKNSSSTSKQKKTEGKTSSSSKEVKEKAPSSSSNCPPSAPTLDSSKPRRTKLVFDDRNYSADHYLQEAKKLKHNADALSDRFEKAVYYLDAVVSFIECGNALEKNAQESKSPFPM

[3] = molecular target: T3, FLAG-AFF4 Δ970-1163 L320D (UniProt Q9UHB7)
T3 sequence: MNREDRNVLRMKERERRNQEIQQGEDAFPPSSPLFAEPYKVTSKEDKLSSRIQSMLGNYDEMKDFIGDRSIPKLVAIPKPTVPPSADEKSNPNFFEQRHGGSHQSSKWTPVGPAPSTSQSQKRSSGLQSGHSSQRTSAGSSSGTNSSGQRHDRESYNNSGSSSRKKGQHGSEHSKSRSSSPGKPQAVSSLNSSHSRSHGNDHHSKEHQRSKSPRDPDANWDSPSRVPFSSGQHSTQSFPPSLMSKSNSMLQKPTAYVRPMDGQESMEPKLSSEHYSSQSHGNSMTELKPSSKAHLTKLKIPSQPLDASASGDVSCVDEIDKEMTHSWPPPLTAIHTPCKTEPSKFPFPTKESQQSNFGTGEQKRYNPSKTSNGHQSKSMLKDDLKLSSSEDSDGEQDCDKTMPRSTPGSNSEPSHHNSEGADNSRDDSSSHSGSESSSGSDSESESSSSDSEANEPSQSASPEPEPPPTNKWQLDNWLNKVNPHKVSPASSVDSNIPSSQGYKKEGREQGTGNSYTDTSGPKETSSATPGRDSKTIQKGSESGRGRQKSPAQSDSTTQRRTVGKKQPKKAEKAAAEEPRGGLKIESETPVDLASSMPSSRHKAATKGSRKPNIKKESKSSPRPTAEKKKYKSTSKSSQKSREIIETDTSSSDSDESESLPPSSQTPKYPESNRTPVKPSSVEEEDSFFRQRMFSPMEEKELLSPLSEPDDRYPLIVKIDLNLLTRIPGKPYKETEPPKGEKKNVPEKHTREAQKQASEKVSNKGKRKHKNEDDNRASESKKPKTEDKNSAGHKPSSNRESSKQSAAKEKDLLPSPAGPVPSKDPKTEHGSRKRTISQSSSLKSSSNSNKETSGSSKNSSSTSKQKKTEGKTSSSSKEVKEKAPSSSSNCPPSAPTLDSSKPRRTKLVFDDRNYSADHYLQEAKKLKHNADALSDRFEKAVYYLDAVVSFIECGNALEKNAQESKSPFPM

[4] = molecular target: HA-tagged wild-type ELL2 (human) (UniProt O00472)

binding [1]: binds
binding [2]: binds
binding [3]: no binding
binding [4]: binds
B1: ELL1 in nuclear extracts (protein, UniProt P55199 1-621)
chain: MAALKEDRSYGLSCGRVSDGSKVSVFHVKLTDSALRAFESYRARQDSVSLRPSIRFQGSQGHISIPQPDCPAEARTFSFYLSNIGRDNPQGSFDCIQQYVSSHGEVHLDCLGSIQDKITVCATDDSYQKARQSMAQAEEETRSRSAIVIKAGGRYLGKKVQFRKPAPGATDAVPSRKRATPINLASAIRKSGASAVSGGSGVSQRPFRDRVLHLLALRPYRKAELLLRLQKDGLTQADKDALDGLLQQVANMSAKDGTCTLQDCMYKDVQKDWPGYSEGDQQLLKRVLVRKLCQPQSTGSLLGDPAASSPPGERGRSASPPQKRLQPPDFIDPLANKKPRISHFTQRAQPAVNGKLGVPNGREALLPTPGPPASTDTLSSSTHLPPRLEPPRAHDPLADVSNDLGHSGRDCEHGEAAAPAPTVRLGLPLLTDCAQPSRPHGSPSRSKPKKKSKKHKDKERAAEDKPRAQLPDCAPATHATPGAPADTPGLNGTCSVSSVPTSTSETPDYLLKYAAISSSEQRQSYKNDFNAEYSEYRDLHARIERITRRFTQLDAQLRQLSQGSEEYETTRGQILQEYRKIKKTNTNYSQEKHRCEYLHSKLAHIKRLIAEYDQRQLQAWP
